# Assay results reported in patent US20050112150A1.
# No constants are given. Whether binding was seen depends on the method and setting. Some results given as binding are weak or reduced against the parent protein; the word gives no strength.
# T1: human corneodesmosine of 52-56 kDa extracted from human epidermis (human) (UniProt Q15517)
# T1 sequence (chain, N-glycosylated; phosphorylated on serine (sites not stated)): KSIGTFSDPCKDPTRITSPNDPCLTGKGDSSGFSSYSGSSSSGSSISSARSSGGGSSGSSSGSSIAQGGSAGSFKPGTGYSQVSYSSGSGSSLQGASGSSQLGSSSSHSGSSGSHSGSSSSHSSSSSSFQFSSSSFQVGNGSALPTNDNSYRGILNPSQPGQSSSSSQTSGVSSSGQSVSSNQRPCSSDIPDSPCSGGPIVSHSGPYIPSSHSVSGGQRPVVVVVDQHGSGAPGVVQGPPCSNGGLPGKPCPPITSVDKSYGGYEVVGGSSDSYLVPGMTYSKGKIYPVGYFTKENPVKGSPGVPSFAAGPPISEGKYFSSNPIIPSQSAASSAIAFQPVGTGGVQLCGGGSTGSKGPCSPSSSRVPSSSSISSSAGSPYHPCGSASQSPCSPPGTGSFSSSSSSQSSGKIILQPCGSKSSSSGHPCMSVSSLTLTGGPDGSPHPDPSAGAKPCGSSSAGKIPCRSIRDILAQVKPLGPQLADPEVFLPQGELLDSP
# Biological target: T1, human corneodesmosine of 52-56 kDa extracted from human epidermis (human)
# Assay: lectin blot with biotinylated lectin (1 µg/ml) on affinity-purified corneodesmosine
binder,measurement,value
"wheat germ agglutinin (protein, UniProt P10968 27-197, looked up, biotinylated) QRCGEQGSNMECPNNLCCSQYGYCGMGGDYCGKGCQNGACWTSKRCGSQAGGATCTNNQCCSQYGYCGFGAEYCGAGCQGGPCRADIKCGSQAGGKLCPNNLCCSQWGFCGLGSEFCGGGCQSGACSTDKPCGKDAGGRVCTNNYCCSKWGSCGIGPGYCGAGCQSGGCDG",binding,binds
